These are yes or no findings as the source states them, for the method shown. In cells and extracts the contact can be indirect. Binding can be weak; no strength is given.
Key:
Test in all cases: co-IP; HEK-293T cells co-transfected with a FLAG-tagged and a GFP-tagged construct, harvested 48 h later in HA-buffer (50 mM Tris-HCl pH 7.5, 150 mM NaCl, 2 mM EDTA, 1 mM EGTA, 1% Triton X-100); cleared lysate on anti-FLAG M2 affinity gel, 1 h, 4 °C; partners detected by Western blot with anti-GFP
[1] = target: Atlantic salmon ssTyk2-1, FLAG-tagged (Atlantic salmon (Salmo salar)) (UniProt S5RRC4)
[2] = target: Atlantic salmon IRF9, FLAG-tagged (Atlantic salmon (Salmo salar)) (UniProt B5X4X0)
[3] = target: Atlantic salmon STAT1a, FLAG-tagged (Atlantic salmon (Salmo salar)) (UniProt C7EY83)

| binding [1] | binding [2] | binding [3] | Substance |
| --- | --- | --- | --- |
| binds | binds | – | Atlantic salmon STAT1a, GFP-tagged (from UniProt C7EY83) |
| binds | binds | binds | Atlantic salmon STAT2a, GFP-tagged (from UniProt X2KK07) |
| binds | binds | binds | Atlantic salmon STAT2b, GFP-tagged (from UniProt X2KN52) |
